# The list shows a part of the results, in another mix than the full data. This is one part of the list. For part of these data: Construct or isoform of the protein are uncertain.
# The chains behind the UniProt entries cited, without tags or fusion partners. Where a name states a change or a piece, a line headed by the entry shows the natural chain unless it says otherwise.
# UniProt P32519: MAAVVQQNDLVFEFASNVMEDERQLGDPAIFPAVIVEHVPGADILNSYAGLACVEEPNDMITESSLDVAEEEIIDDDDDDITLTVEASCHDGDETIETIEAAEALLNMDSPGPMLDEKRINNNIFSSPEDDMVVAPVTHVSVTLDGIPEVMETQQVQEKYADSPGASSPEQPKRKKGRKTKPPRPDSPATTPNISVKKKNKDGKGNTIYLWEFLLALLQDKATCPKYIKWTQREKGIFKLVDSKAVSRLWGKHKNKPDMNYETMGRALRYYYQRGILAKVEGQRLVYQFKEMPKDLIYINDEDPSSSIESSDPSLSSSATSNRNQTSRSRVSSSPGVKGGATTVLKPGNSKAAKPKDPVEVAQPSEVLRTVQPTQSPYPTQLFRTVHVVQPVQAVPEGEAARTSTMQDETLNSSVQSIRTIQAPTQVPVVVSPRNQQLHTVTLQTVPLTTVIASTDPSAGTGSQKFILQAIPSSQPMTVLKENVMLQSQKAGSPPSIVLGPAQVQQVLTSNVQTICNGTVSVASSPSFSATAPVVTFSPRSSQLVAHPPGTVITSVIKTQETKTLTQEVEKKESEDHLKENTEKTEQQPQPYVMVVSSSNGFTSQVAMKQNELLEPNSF
# Biological target: ELF1 (UniProt P32519)
# Test: DAPPL (digital affinity profiling via proximity ligation, sequencing)
# Conditions: 10 mM Tris-HCl pH 7.5, 50 mM NaCl, 1 mM DTT, 4% glycerol, room temperature, 30 min; GST-TFs on glutathione beads, 16-mer random dsDNA library, 0.1% …; high values mean tight binding; double strand, one strand shown; scale: fold enrichment (6-mer frequency, TF over GST control)
row,Sequence,binding signal
1,GCTATT,1.26
2,CTGCCA,1.23
3,ATTGAT,1.31
4,CCATTT,1.27

# Biological target: T1, ELK4 (UniProt P28324-2)
# T1 sequence: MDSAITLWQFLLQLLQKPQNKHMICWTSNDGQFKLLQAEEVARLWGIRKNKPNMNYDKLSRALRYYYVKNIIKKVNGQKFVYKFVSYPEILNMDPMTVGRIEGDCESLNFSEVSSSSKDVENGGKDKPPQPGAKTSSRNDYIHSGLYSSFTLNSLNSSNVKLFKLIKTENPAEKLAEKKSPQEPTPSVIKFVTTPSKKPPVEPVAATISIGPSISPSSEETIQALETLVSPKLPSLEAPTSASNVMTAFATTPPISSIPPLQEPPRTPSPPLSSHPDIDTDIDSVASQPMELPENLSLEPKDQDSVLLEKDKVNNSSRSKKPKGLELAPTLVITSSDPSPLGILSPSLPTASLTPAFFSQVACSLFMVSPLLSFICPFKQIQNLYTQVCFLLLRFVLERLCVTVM
# Test: as above
# Conditions: 10 mM Tris-HCl pH 7.5, 50 mM NaCl, 1 mM DTT, 4% glycerol, room temperature, 30 min; GST-TFs on glutathione beads, 16-mer random dsDNA library, 0.1% …; high values mean tight binding; double strand, one strand shown; scale: fold enrichment (6-mer frequency, TF over GST control)
row,Sequence,binding signal
1,GCTATT,1.56
2,CTGCCA,1.33
3,ATTGAT,1.38
4,CCATTT,1.41

# Biological target: T2, ETV4 (UniProt P43268)
# T2 sequence: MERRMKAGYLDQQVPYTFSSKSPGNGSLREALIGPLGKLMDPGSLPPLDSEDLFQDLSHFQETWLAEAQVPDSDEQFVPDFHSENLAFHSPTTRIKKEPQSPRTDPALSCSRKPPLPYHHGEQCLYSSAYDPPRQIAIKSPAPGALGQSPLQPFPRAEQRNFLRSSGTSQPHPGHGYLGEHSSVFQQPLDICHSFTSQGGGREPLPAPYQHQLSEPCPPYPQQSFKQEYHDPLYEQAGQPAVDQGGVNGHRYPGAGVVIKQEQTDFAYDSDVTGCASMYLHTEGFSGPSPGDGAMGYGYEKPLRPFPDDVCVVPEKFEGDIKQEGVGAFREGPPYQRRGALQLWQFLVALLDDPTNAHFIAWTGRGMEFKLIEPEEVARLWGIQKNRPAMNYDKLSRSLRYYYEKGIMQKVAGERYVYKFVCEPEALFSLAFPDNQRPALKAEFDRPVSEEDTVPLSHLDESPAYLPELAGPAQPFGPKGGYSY
# Test: as above
# Conditions: 10 mM Tris-HCl pH 7.5, 50 mM NaCl, 1 mM DTT, 4% glycerol, room temperature, 30 min; GST-TFs on glutathione beads, 16-mer random dsDNA library, 0.1% …; high values mean tight binding; double strand, one strand shown; scale: fold enrichment (6-mer frequency, TF over GST control)
row,Sequence,binding signal
1,CCGACC,1.51
2,CCGGCA,1.44
3,ACTTAT,1.46
4,CGATTA,1.1
5,ATGAAT,1.1
6,ATACCC,1.18
7,GCTATT,1.28
8,GGTTTT,1.12
9,TACTCG,1.3
10,TACCAC,1.26
11,TAGCAC,1.14
12,GGGCTA,1.06
13,TTACAC,1.23
14,CTGCCA,1.16
15,AAAGAC,1.06
16,AAATAT,1.26
17,TCCAAT,1.19
18,TCTCGG,1.43
19,CACAAT,1.15
20,TTGATT,1.3

row,Sequence,binding signal
1,TTTTGC,1.37
2,CTTTCT,1.46
3,TTAAGT,1.23
4,GATGCT,1.21
5,CCCTAC,1.41
6,TTCTCA,1.21
7,ATCTCC,1.62
8,ATTGAT,1.24
9,AATACA,1.38
10,CTATAA,1.28
11,TGCCTG,1.18
12,TGTTTG,1.39
13,CTTCAT,1.44
14,CCATTT,1.35
15,ACTCTC,1.59
16,CTAAAG,1.33
17,TAATCT,1.45
18,GTACTC,1.21
19,AAGTAA,1.3
20,ACTCGC,1.27
